According to article PMC13284301:
Results are given in words; binding and its absence hold for the method and conditions named. In cells and extracts the contact can be indirect. These calls come from enrichment with a bait or labelling near it, and not all partners need be listed. Sequences can lack the tags named with a protein.

Sequences of proteins named here, by UniProt entry; tags and fusion partners are left off.
UniProt P41377: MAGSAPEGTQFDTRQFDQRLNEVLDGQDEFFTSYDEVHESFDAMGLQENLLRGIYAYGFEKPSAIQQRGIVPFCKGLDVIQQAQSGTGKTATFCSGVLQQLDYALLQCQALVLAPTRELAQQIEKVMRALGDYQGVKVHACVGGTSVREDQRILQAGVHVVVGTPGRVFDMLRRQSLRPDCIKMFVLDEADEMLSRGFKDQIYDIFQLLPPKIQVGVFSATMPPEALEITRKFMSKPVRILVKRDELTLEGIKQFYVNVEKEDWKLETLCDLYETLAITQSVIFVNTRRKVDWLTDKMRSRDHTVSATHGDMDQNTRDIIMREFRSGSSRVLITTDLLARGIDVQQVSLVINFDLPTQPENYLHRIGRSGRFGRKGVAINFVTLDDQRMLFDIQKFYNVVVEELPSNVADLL
UniProt P41376: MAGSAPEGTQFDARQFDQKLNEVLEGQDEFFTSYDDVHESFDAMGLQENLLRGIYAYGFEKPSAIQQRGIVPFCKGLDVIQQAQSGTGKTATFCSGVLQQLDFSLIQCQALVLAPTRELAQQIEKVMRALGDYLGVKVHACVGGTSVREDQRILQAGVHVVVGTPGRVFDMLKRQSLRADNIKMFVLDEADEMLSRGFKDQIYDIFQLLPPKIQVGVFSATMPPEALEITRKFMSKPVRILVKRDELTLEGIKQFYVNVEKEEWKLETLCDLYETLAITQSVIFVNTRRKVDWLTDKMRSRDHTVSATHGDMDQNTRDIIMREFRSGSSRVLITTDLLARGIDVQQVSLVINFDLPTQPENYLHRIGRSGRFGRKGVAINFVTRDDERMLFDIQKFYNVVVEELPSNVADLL

Biological target: T1, SMG7-MYC (Arabidopsis thaliana) (UniProt A9QM73)
T1 sequence: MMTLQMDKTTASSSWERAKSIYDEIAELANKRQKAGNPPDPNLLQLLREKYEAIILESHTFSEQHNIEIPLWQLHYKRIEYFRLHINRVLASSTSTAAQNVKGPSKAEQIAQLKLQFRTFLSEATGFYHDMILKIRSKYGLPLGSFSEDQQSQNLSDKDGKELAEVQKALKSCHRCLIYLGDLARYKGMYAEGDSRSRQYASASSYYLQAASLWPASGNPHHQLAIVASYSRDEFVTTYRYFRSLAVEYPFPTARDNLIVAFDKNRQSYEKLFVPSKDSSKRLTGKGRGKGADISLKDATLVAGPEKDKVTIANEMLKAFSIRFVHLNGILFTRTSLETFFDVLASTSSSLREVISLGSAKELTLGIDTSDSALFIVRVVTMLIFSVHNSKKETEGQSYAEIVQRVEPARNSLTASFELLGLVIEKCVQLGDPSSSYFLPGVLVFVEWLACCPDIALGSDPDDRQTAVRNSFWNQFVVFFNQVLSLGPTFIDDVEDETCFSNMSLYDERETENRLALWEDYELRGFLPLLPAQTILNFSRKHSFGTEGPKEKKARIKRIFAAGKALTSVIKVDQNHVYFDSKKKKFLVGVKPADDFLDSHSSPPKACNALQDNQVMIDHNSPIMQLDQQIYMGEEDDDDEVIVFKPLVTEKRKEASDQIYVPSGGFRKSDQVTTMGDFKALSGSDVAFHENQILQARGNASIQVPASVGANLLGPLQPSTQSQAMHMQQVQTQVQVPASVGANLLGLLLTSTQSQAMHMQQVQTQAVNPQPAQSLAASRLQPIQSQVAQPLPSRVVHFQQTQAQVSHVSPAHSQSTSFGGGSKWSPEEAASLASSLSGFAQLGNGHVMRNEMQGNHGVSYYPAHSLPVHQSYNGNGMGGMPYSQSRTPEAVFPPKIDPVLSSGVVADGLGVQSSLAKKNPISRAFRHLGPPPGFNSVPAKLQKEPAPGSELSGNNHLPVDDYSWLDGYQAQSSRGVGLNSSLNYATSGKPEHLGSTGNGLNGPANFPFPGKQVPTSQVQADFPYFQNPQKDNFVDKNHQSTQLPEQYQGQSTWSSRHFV
Assay: affinity purification with mass spectrometry; SMG7-MYC precipitated with EZview Red Anti-c-Myc Affinity Gel from extracts of leaves, stems and inflorescences of 35-day-old SMG7-MYC plants, wild type as control; 50 mM Tris-HCl pH 7.5, 150 mM NaCl, 0.1% Nonidet P-40, 10% glycerol, with phosphatase inhibitors; LC-MS/MS of gel bands

| Substance | binding |
| --- | --- |
| eIF4A2 (from UniProt P41377 1-412) | binds |
| eIF4A1 (from UniProt P41376 1-412) | binds |
